Test results taken from patent publication US6028061A, “Angiogenesis inhibitors and use thereof” (Children's Medical Center Corp, priority 1998, dated 2000).

Tested on: FGF-2
Test: Isothermal titration calorimetry of glycosaminoglycan binding to FGF-2
Conditions: for ΔH: 50 mM sodium phosphate pH 7.4, 100 mM NaCl, 25° C; for avg. binding site size (size of oligosaccharide occupied by a single FGF2 molecule): 2(MW/disaccharide unit mass)/n
Procedure: Interaction of glycosaminoglycans and their derivatives with FGF-2. Isothermal titration calorimetry was performed in 50 mM sodium phosphate buffer, pH 7.4, containing 100 mM sodium chloride at 25° C. as previously described (15).
Determination of the FGF-2 binding affinity of glycosaminoglycans and their derivatives. Isothermal titration calorimetry was performed with heparin oligosaccharides, herapin, acharan sulfate and N-sulfoacharan sulfate. The heat of interaction (ΔH) is directly measured in this experiment. From this heat of interaction the Kd, and n (stoichiometry) of interaction can be deduced. The minimum FGF-2 binding site is a tetra- or hexasaccharide. […] The n value is consistent with the molecular weight of each ligand (Table 2).

Row | Substance | ΔH [kcal/mol] | avg. binding site size (size of oligosaccharide occupied by a single FGF2 molecule)
1 | →4)GlcNp2S(1→4)IdoAp2S(1→ [N-sulfoacharan sulfate] | -15.4 | hexasacchar
2 | →4)GlcNpAc(1→4)IdoAp2S(1→ [Acharan sulfate] | -15.1 | octasaccharid
3 | Low molecular weight heparin [reference compound] | -13.4 | tetrasaccharide
